The results in this text go back to PubChem BioAssay AID1487 (National Center for Advancing Translational Sciences (NCATS), 2009).

“And” between values parts separate entries of the source, which are not always exact repeats. Equal values may be shown once. Some of the results follow. Further columns of the screen follow, without active or inactive calls. Most of these compounds were active or inconclusive in the main read-out, so they are no random draw. Words in brackets tell the shape of the fitted curve; partial curves, single points and poor fits give uncertain potencies.

This assay in a line: qHTS Assay for Modulators of Lamin A Splicing. Particulars: HeLa LMNA splicing GFP/RFP minigene ratio, 48 h. The procedure, abridged: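 S3 HeLa stable clones carrying a lamin A-EGFP splicing minigene plus DsRed2 were seeded at 600 cells/well in Opti-MEM with 2% FBS, pin-dosed and incubated 48 h at 37°C. Acumen cytometry (488 nm) gave the GFP/RFP total-intensity ratio.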
(qHTS replaces the single test concentration by a dilution series.)

Setting [1] is: measured here: GFP splicing reporter channel.
Setting [2] is: measured here: RFP viability control channel.

As to `CCc1ccc(NC(=O)N2CCN(c3nnc(C)c4c(C)n(-c5ccc(Cl)cc5)nc34)CC2)cc1`, under setting [1], the half-maximal activity concentration (AC50) is 35.5 µM [falling, partial curve, poor fit].

In the case of `Cc1cc(-c2nn(-c3ccccc3F)cc2CNCCc2cnc[nH]2)c(C)s1`, under setting [1], the AC50 is 0.891 µM [falling, partial curve].

Consider `O=S(=O)(c1ccc2c(c1)OCCO2)N1CCC(c2nc3ccccc3s2)CC1`, for which the AC50 under setting [2] was 3.16 µM [rising, full curve]. Consider `COCCCNS(=O)(=O)c1ccc(Oc2ncc(C(F)(F)F)cc2Cl)cc1`, for which the half-maximal activity concentration (AC50) under setting [1] is 35.5 µM [rising, single point] and the concentration at half-maximal activity (AC50) under setting [2] is 35.5 µM [rising, single point]. Turning to `Cc1ccc(/C=N/N2CCN(C3c4ccccc4-c4ccccc43)CC2)s1`, the AC50 under setting [2] was 0.0224 µM [rising, full curve, poor fit]. Turning to `CCOc1ccc2nc(SCC(=O)c3ccc(Cl)s3)sc2c1`, the concentration at half-maximal activity (AC50) under setting [1] was 12.6 µM [rising, single point] and the AC50 under setting [2] was 15.8 µM [rising, single point]. `Cc1cc(C)n(-c2ccc(C(=O)OCC(=O)N(CC(C)C)C3CCS(=O)(=O)C3)cc2)n1` (stereo unspecified): under setting [2], the AC50 was 5.62 µM [rising, single point]. Regarding `O=C(Nc1cc(C(F)(F)F)ccc1N1CCOCC1)c1ccc(Br)o1`, under setting [1], the half-maximal activity concentration (AC50) is 8.91 µM [rising, partial curve, poor fit].

Take `Nc1nc(CSC(=S)N2CCOCC2)nc(Nc2ccccc2)n1`: the AC50 runs as follows: under setting [1], 17.8 µM [rising, partial curve]; under setting [2], 35.5 µM [rising, single point]. For the compound `O=C(O)CN(CCN(CC(=O)O)CC(=O)O)CCN(CC(=O)O)CC(=O)O`, the AC50 is 14.1 µM [rising, single point] and 11.2 µM [falling, partial curve] under setting [1]; 22.4 µM [rising, partial curve, poor fit] and 126 nM [rising, full curve, poor fit] under setting [2]. Regarding `CC1=CCC(C(=O)N/N=C/c2cccs2)C(c2ccc(F)cc2)C1` (stereo unspecified), the half-maximal activity concentration (AC50) was 35.5 µM [falling, single point] under setting [1] and 12.6 µM [falling, partial curve] under setting [2]. As to `C=CCn1c(=O)c2c3c(sc2n2c(Nc4ccc(OC)cc4)nnc12)CCCC3`, under setting [1], the concentration at half-maximal activity (AC50) is 35.5 µM [rising, single point].

On to `CC(C)(CO)Cc1cc(C(C)(C)C)c(O)c(C(C)(C)C)c1`, for which the half-maximal activity concentration (AC50) reads like this: under setting [1], 28.2 µM [falling, single point]; under setting [2], 35.5 µM [falling, partial curve, poor fit]. Take `Cc1ccc(Oc2cc([N+](=O)[O-])cc3c2C(=O)Nc2ccccc2O3)cc1`: the concentration at half-maximal activity (AC50) runs as follows: under setting [1], 2.24 µM [rising, partial curve, poor fit]; under setting [2], 3.16 µM [rising, partial curve].

For the compound `CC(=O)Oc1ccccc1C1=NN(C(=O)/C=C/c2ccccc2)C(c2ccccc2)C1` (stereo unspecified), the half-maximal activity concentration (AC50) under setting [2] was 10 µM [rising, partial curve]. In the case of `O=C(NCc1ccccc1)c1ccc(S(=O)(=O)C(F)F)cc1`, under setting [2], the half-maximal activity concentration (AC50) was 22.4 µM [rising, single point].

In the case of `COc1ccccc1-c1cc(NCc2cccc(C)c2)ncn1`, the concentration at half-maximal activity (AC50) is 12.6 µM [falling, partial curve] under setting [1] and 12.6 µM [falling, partial curve] under setting [2]. As for `Cc1cccc(C)c1N1CCN(S(=O)(=O)c2ccc(F)cc2)CC1`, the concentration at half-maximal activity (AC50) under setting [2] was 31.6 µM [rising, single point]. The same measure, in the same setting: in the case of `COc1cccc(/C=N/Nc2nn3cnnc3c3ccccc23)c1` it was 10 µM [rising, partial curve, poor fit]; in that of `O=C(/C=C/c1ccco1)Nc1ccccn1`, 2.82 µM [rising, full curve]; in that of `N#C/C(=C\Nc1ccccc1O)c1nc2ccccc2o1`, 15.8 µM [rising, single point].

In the case of `CC1CN/C(=C\C(=O)c2ccc(Br)cc2)C(=O)N1` (stereo unspecified), the AC50 under setting [2] was 0.708 µM [falling, full curve, poor fit].

With `CC(C)c1ccc(NC(=O)CSc2nnc(-c3ccccn3)n2C)cc1`, the AC50 under setting [2] is 12.6 µM [rising, single point]. Still for that read-out and setting: in the case of `CCCc1nc(N2CCN(C)CC2)c2sc(=S)n(-c3ccccc3)c2n1` it was 1.26 µM [rising, full curve, poor fit]. Consider `Cc1[nH]c2ccccc2c1/C=N/NC(=O)c1cccc([N+](=O)[O-])c1`, for which the AC50 under setting [1] is 0.708 µM [falling, full curve]. On the same count and under the same terms, in the case of `COc1nc(N2CCOCC2)nc(C)c1[N+](=O)[O-]` it was 14.1 µM [rising, single point].

`O=C(Nc1ccc(N2CCN(C(=O)c3ccc(Cl)cc3)CC2)cc1)c1ccc([N+](=O)[O-])o1`: the AC50 was 0.316 µM [falling, full curve] under setting [1] and 5.62 µM [falling, partial curve] under setting [2].

As to `O=C(CCCN1C(=O)/C(=C\c2ccco2)SC1=S)Nc1ccc2ccccc2c1`, the half-maximal activity concentration (AC50) under setting [2] is 2.24 µM [rising, full curve, poor fit]. Same read-out and setting: next, `CCCN1CCN(c2ncnc3sc(C(=O)Nc4ccc(OC(F)(F)F)cc4)c(C)c23)CC1`: 2.82 µM [rising, partial curve, poor fit]; `COc1ccc(-n2nnnc2SCC(=O)c2ccc(OC)c(OC)c2)cc1`: 35.5 µM [rising, single point]. Regarding `CCn1ncc(C2=NOC(C(=O)Nc3ccc4c(c3)OCO4)C2)c1C` (stereo unspecified), the AC50 was 12.6 µM [rising, partial curve] under setting [1] and 12.6 µM [rising, partial curve] under setting [2]. For the compound `COc1ccc(C(=O)C2CCCN(C(=O)C3=CCCC3)C2)cc1OC` (stereo unspecified), under setting [1], the concentration at half-maximal activity (AC50) is 11.2 µM [rising, partial curve]. In the case of `CCCn1cnc2c1c(=O)n(CCCCC(C)=O)c(=O)n2C`, the AC50 under setting [2] is 0.0501 µM [rising, full curve, poor fit]. For `O=C1N/C(=C/c2cccs2)C(=O)N1Cc1ccc(F)cc1`, the AC50 under setting [1] is 3.98 µM [falling, full curve, poor fit] and the AC50 under setting [2] is 0.316 µM [falling, full curve, poor fit]. Take `O=S(=O)(NCCc1csc(-c2cccnc2)n1)c1ccc(Cl)s1`: under setting [2], the half-maximal activity concentration (AC50) is 14.1 µM [rising, single point].

As a reminder, the AC50 is the concentration giving half of the maximal activity seen.
